# Laboratory results: the supplement of paper PMC11006884
# Protein sequences, listed by entry. Tags and fused reporters are not part of them. Lines headed by an entry give the natural chain unless they say otherwise; changes in a name come on top.
# UniProt Q9H9A6: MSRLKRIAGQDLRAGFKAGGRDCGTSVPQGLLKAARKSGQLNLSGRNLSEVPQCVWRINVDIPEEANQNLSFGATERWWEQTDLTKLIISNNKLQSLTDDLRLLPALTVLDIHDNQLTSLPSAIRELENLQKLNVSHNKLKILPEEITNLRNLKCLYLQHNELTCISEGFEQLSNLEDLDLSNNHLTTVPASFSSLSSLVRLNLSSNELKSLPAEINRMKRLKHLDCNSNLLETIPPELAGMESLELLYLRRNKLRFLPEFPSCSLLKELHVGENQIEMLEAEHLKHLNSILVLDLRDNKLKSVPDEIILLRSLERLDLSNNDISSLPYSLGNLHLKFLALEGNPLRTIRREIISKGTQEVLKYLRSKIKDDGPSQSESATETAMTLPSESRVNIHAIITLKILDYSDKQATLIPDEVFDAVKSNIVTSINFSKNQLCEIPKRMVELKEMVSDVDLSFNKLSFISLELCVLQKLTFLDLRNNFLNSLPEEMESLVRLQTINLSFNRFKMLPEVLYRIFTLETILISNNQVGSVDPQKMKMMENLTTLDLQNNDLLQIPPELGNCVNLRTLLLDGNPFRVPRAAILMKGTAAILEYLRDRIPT
# UniProt Q9H9Q2: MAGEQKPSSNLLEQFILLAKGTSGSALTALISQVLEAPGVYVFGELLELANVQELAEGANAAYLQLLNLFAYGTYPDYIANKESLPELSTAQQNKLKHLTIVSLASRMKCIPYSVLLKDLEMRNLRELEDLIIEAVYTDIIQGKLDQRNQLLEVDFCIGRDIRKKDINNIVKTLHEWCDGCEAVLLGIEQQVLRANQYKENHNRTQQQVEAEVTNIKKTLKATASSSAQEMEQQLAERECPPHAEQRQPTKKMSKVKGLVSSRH
# UniProt Q9NQZ5: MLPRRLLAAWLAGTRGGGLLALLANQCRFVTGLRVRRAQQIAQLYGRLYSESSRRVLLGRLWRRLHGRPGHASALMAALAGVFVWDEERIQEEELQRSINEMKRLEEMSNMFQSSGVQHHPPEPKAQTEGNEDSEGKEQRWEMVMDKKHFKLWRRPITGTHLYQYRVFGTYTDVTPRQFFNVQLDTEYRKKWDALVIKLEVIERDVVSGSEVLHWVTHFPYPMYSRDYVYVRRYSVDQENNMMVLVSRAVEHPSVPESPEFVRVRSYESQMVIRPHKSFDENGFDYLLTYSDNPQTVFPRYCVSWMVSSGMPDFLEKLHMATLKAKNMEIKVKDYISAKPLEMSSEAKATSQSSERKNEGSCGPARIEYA
# UniProt Q9NQW7: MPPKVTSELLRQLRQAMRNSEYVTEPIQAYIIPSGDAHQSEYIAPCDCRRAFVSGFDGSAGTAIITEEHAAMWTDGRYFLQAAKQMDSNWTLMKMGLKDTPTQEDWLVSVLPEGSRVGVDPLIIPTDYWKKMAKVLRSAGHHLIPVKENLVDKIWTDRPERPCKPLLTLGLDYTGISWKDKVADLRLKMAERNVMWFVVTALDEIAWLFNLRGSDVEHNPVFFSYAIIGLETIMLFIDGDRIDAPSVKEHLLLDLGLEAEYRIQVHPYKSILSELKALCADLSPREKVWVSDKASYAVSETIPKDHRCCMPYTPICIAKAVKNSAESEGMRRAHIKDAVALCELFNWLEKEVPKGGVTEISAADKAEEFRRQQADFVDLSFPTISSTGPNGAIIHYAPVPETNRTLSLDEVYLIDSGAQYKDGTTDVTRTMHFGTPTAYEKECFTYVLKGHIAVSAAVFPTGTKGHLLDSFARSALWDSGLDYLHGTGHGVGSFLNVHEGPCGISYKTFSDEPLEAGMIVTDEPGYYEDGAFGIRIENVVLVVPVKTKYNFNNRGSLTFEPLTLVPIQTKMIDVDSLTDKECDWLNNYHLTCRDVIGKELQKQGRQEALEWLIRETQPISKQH
# UniProt Q9HD45: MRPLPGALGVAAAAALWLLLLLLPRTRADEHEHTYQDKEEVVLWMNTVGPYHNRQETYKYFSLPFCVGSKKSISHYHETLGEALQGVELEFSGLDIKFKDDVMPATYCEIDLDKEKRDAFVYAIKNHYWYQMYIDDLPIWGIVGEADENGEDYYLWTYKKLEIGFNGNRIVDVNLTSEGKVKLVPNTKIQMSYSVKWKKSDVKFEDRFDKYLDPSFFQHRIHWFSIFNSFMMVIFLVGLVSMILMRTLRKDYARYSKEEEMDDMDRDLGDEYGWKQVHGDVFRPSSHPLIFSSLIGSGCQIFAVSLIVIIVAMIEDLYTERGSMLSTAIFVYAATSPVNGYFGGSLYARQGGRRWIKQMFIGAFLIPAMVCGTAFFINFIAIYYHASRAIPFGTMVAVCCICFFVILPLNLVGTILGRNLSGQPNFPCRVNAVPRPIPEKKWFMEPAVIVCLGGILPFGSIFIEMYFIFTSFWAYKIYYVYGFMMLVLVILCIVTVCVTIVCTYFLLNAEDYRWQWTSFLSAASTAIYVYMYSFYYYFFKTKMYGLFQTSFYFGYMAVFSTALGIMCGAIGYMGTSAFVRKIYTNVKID
# UniProt Q9NTI5: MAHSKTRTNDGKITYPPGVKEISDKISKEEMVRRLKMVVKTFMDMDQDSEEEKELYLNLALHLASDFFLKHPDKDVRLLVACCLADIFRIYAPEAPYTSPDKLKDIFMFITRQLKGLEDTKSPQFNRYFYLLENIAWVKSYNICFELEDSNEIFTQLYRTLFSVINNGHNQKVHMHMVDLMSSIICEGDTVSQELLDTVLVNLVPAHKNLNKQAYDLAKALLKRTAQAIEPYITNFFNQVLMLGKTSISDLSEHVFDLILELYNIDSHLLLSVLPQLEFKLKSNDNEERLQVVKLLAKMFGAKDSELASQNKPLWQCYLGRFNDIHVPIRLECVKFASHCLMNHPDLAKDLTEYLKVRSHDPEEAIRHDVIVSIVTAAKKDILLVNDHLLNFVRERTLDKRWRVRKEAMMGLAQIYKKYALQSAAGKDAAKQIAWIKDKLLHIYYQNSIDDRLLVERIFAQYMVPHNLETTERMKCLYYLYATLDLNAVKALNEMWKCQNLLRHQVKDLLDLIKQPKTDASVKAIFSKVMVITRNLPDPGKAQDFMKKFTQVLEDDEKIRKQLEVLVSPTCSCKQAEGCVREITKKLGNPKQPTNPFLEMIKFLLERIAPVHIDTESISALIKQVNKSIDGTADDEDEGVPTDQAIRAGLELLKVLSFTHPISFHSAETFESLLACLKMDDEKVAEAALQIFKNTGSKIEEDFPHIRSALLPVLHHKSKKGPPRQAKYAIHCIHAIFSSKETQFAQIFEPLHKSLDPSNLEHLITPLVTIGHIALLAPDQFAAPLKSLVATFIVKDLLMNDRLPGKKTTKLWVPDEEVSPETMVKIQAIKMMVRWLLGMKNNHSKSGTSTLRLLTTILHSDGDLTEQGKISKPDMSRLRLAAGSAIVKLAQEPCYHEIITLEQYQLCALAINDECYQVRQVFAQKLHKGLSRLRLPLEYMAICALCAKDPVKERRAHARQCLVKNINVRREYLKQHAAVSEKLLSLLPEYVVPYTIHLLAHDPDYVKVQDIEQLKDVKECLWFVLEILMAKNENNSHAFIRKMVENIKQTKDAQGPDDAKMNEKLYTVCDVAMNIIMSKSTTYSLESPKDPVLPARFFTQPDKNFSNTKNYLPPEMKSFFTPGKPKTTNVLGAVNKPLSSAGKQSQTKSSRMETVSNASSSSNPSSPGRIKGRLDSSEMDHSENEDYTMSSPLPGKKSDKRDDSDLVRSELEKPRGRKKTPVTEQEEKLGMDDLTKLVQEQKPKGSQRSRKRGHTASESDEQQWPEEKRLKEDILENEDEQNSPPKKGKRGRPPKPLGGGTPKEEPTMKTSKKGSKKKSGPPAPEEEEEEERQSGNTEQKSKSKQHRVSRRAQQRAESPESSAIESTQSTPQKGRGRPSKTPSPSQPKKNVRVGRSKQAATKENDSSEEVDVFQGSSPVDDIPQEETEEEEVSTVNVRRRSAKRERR
# UniProt Q9H4L7: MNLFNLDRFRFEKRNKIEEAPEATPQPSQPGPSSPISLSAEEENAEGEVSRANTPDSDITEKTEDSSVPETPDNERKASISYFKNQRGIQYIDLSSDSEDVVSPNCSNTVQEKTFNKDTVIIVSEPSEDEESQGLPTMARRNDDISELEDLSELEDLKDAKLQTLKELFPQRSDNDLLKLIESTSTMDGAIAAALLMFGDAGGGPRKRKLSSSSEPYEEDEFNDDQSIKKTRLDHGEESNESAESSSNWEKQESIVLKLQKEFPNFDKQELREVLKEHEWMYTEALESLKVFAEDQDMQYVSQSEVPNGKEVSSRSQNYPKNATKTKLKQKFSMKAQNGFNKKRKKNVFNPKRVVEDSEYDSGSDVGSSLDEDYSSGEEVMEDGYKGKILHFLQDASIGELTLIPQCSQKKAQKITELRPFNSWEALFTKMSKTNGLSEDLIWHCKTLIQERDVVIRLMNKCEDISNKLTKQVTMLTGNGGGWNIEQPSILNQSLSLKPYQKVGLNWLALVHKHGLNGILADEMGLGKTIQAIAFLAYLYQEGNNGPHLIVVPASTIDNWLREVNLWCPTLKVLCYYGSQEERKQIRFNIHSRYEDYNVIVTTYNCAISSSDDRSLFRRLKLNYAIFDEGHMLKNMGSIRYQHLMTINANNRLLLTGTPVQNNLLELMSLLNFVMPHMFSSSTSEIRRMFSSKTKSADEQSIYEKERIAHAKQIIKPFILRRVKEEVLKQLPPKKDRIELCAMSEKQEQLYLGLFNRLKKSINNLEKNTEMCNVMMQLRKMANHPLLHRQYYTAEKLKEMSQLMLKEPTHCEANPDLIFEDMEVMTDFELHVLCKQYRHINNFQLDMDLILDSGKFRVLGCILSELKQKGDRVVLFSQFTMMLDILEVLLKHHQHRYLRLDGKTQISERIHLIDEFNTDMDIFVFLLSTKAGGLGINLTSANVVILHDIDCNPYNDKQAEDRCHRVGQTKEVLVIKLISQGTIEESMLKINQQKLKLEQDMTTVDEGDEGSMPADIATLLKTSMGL
# UniProt Q9NQC3: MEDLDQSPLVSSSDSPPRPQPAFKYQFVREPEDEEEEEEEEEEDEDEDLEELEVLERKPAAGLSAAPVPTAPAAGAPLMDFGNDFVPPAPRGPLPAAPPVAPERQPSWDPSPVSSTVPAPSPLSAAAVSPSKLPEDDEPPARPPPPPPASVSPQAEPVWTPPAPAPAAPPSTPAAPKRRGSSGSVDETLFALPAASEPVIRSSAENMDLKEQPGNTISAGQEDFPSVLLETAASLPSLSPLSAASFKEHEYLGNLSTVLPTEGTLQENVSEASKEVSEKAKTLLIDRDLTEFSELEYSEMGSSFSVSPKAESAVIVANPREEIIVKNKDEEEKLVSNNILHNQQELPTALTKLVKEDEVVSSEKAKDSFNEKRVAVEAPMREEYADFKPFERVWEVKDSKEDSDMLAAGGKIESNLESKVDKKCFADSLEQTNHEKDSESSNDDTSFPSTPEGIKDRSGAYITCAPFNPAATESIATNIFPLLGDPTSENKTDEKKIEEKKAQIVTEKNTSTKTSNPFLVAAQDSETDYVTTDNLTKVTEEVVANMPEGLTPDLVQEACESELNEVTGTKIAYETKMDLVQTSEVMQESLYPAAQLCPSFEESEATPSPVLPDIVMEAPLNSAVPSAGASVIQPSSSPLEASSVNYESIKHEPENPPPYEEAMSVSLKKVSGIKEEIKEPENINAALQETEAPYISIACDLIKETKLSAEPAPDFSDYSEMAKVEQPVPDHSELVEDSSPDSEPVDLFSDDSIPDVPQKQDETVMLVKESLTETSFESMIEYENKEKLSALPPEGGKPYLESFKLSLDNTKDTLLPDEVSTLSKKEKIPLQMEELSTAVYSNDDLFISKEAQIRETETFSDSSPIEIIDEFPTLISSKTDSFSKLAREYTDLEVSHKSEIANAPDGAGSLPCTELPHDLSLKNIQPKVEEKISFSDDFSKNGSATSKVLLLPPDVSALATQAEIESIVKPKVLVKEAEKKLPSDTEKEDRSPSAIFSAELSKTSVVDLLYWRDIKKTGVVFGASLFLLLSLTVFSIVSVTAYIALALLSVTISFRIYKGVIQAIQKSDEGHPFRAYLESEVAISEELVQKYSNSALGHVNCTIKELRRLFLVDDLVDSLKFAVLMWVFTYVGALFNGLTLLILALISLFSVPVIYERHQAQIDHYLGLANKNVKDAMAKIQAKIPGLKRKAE
# UniProt Q9H7P6: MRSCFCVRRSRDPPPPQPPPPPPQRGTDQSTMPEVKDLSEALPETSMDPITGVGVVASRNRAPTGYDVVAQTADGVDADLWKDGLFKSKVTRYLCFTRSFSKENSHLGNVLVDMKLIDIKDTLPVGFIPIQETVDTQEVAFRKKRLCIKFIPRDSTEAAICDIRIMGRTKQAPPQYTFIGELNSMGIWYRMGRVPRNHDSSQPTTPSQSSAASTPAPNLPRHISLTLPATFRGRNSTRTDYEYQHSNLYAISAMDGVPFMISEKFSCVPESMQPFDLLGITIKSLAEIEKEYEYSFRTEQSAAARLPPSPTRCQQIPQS
# Shown are results outside the selection of targets with a hit, which stands elsewhere. Single values of this set are uncertain. Only a part is listed here, and it is no random draw.
# Compound: COC(=O)/C=C/c1ccccc1 [methyl cinnamate]
# Experiment: log2 ratio of iodoacetamide-alkyne labeling of the cysteine site, DMSO over compound (competition); higher = stronger covalent engagement of the cysteine by the compound, active = 1 or more
# Conditions: 500 µM; treatment time 1 h; system: HEK293T cell lysate
# Outline: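 HEK293T lysate (2 mg/mL) was treated with DMSO or electrophile (500 µM, 1 h, ambient temperature), then iodoacetamide alkyne (1 h), clicked to sCIP-TMT reagents, pooled, trypsin-digested overnight at 37 °C, streptavidin-enriched and acid-eluted. Peptides were run on Orbitrap Eclipse LC-MS/MS with FAIMS and quantified in FragPipe. The log2 competition ratio per cysteine is mean control-channel over mean compound-channel reporter intensity. Duplicate channels and three replicates were used, and cysteines quantified in only one replicate were excluded.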
row,Target,log2 ratio of iodoacetamide-alkyne labeling
1,LRRC40 C54 (UniProt Q9H9A6),inactive: 0.192
2,COPS7B C240 (UniProt Q9H9Q2),inactive: 0.0494
3,STARD7 C362 (UniProt Q9NQZ5),inactive: 0.444
4,IARS2 C91 (UniProt Q9NSE4),inactive: 0.0589
5,ZNF644 C1206 (UniProt Q9H582),inactive: 0.0266
6,GOPC C408 (UniProt Q9HD26),inactive: 0.246
7,MDN1 C1839 (UniProt Q9NU22),inactive: -0.2
8,LANCL2 C49 (UniProt Q9NS86),inactive: -0.0869
9,WDR26 C656 (UniProt Q9H7D7),inactive: 0.159
10,YTHDC2 C1211 (UniProt Q9H6S0),inactive: 0.311
11,HELLS C169 (UniProt Q9NRZ9),inactive: 0.416
12,TUBB1 C211 (UniProt Q9H4B7),inactive: -0.0987
13,SAR1A C178 (UniProt Q9NR31),inactive: 0.183
14,CACYBP C173 (UniProt Q9HB71),inactive: 0.374
15,PPAN C180 (UniProt Q9NQ55),inactive: 0.333
16,HEATR1 C49 (UniProt Q9H583),inactive: -0.0658
17,ISYNA1 C235 (UniProt Q9NPH2),inactive: -0.195
18,RAVER2 C362 (UniProt Q9HCJ3),inactive: 0.276
19,XPNPEP1 C308 (UniProt Q9NQW7),inactive: 0.148

row,Target,log2 ratio of iodoacetamide-alkyne labeling
1,CBX8 C261 (UniProt Q9HC52),inactive: 0.419
2,TM9SF3 C428 (UniProt Q9HD45),inactive: -0.0132
3,PDS5B C1069 (UniProt Q9NTI5),inactive: 0.162
4,MCCC2 C267 (UniProt Q9HCC0),inactive: 0.181
5,UniProt Q9H6R7_C507,inactive: 0.434
6,INCENP C163 (UniProt Q9NQS7),inactive: -0.0141
7,SMARCAD1 C106 (UniProt Q9H4L7),inactive: 0.0476
8,RTN4 C1101 (UniProt Q9NQC3),inactive: 0.112
9,XPNPEP1 C502 (UniProt Q9NQW7),inactive: -0.0301
10,LRRC40 C23 (UniProt Q9H9A6),inactive: 0.333
11,OPA3 C164 (UniProt Q9H6K4),inactive: 0.276
12,SMARCAD1 C772 (UniProt Q9H4L7),inactive: 0.115
13,TRABD C287 (UniProt Q9H4I3),inactive: 0.316
14,MDN1 C172 (UniProt Q9NU22),inactive: 0.0289
15,XPNPEP1 C309 (UniProt Q9NQW7),inactive: -0.00333
16,MVB12B C267 (UniProt Q9H7P6),inactive: -0.0161
17,NOL6 C1034 (UniProt Q9H6R4),inactive: 0.159
18,FKRP C296 (UniProt Q9H9S5),inactive: 0.415

# Some of the entries so far, as tab-separated lines:
row	Target	log2 ratio of iodoacetamide-alkyne labeling
9	XPNPEP1 C502 (UniProt Q9NQW7)	inactive: -0.0301
10	LRRC40 C23 (UniProt Q9H9A6)	inactive: 0.333
11	OPA3 C164 (UniProt Q9H6K4)	inactive: 0.276
12	SMARCAD1 C772 (UniProt Q9H4L7)	inactive: 0.115
13	TRABD C287 (UniProt Q9H4I3)	inactive: 0.316
14	MDN1 C172 (UniProt Q9NU22)	inactive: 0.0289
15	XPNPEP1 C309 (UniProt Q9NQW7)	inactive: -0.00333
16	MVB12B C267 (UniProt Q9H7P6)	inactive: -0.0161
17	NOL6 C1034 (UniProt Q9H6R4)	inactive: 0.159
